These results are taken from PubChem BioAssay AID445 (National Center for Advancing Translational Sciences (NCATS), 2006).

The assay in a line: IkB Signaling. The settings on record: ABC-DLBCL IkBa-CBG/CBR dual luciferase ratio (green luciferase fused to IkBa over red control in OCI-Ly3 lymphoma cells), 4 h. The essentials: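 Luminescence ratio of IκBα-fused green versus native red beetle luciferase in OCI-Ly3 cells, 4 h post-doxycycline with compound; red signal alone, scaled from basal (0%) to zero light (-100%), flagged nonspecific or cytotoxic effects.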
Setting [1] is: measured here: control luc red channel unless noted.
Setting [2] is: measured here: IkB-luc green channel.
[3] abbreviates: measured here: control luc red channel.

Molecules are shown by their SMILES. Some of the results follow. The main result of the screen is listed elsewhere. These columns were measured beside it and carry no call. The list favours compounds with an active or inconclusive main result. Potencies come from curve fits of mixed quality, noted in brackets.

`O=C(Nc1ccccc1)C1=C(N2CCOCC2)/C(=C/c2cccnc2)CC1`: the AC50 under setting [1] was 39.8 µM [falling, single point].

On to `COc1cccc(OCc2nc3ccccc3n2CCOc2cccc(C)c2)c1`, for which the AC50 under setting [1] was 20 µM [falling, partial curve].

Consider `Cc1cccc(CS(=O)(=O)c2ncc(Cl)c(C(=O)NCc3ccccc3)n2)c1`, for which the AC50 under setting [1] was 3.16 µM [falling, full curve].

Regarding `Cn1c(=O)c2c(nc(SCC(=O)Nc3ccc(F)cc3)n2Cc2ccccc2)n(C)c1=O`, the AC50 under setting [1] is 15.8 µM [falling, partial curve].

Turning to `COc1ccc(NS(=O)(=O)c2ccc3[nH]c4c(c3c2)CCCCCC4)cc1`, under setting [1], the AC50 is 20 µM [falling, partial curve].

For the compound `Cc1ccccc1CS(=O)(=O)Cc1ccc(C(=O)NCc2ccc(F)cc2)o1`, under setting [1], the AC50 was 3.16 µM [rising, single point].

For the compound `CCCCn1c(CN(C)Cc2ccccc2)nc2c1c(=O)n(C)c(=O)n2C`, under setting [1], the AC50 was 12.6 µM [falling, partial curve].

For `Cc1ccc(-c2csc(N(CC3CCCO3)C(=O)c3ccco3)n2)cc1` (stereo not drawn), the AC50 under setting [1] was 31.6 µM [falling, partial curve].

Regarding `CC(C)C(=O)OCc1cc(=O)n2nc(C3CCCCC3)sc2n1`, the AC50 under setting [1] was 12.6 µM [falling, partial curve].

With `COCCNc1ncnc2c1c(-c1ccccc1)cn2-c1cccc(Cl)c1`, under setting [1], the AC50 is 39.8 µM [falling, single point].

For the compound `Cc1cnc(C)c(N2CCC(C(=O)NCc3ccco3)CC2)n1`, the AC50 under setting [1] is 2.51 µM [rising, partial curve] [measured here: IkB-luc green channel].

For the compound `Cn1c(CCNC(=O)c2ccco2)nc2cc(NC(=O)COc3ccc(Cl)cc3)ccc21`, the AC50 under setting [1] was 0.316 µM [falling, full curve, poor fit].

For the compound `Cc1ccc(C(=O)COC(=O)CCC(=O)Nc2ccc(Oc3ccccc3)cc2)cc1C`, under setting [1], the AC50 is 0.0631 µM [rising, full curve].

For `O=C(Cn1nc(C(F)(F)F)c2c1CCCC2)NC1CCCC1`, the AC50 under setting [1] was 39.8 µM [falling, single point].

As for `COc1cc(NC(=O)Cn2cc(S(=O)(=O)c3ccccc3)c(=O)c3ccccc32)cc(OC)c1`, the AC50 under setting [1] was 25.1 µM [falling, single point].

Consider `COc1cccc(-c2ccc3c(N)c(C(=O)Nc4ccc(C)c(F)c4)sc3n2)c1`, for which, under setting [1], the AC50 was 15.8 µM [falling, partial curve].

For the compound `CCOc1cc(C2c3c(-c4ccccc4O)n[nH]c3C(=O)N2CCc2ccccc2)ccc1O` (stereo not drawn), under setting [1], the AC50 was 39.8 µM [falling, single point].

Consider `CCCCCC(=O)Nc1cccc(-c2nc3ncccc3o2)c1`, for which the AC50 under setting [1] is 31.6 µM [falling, single point].

Turning to `CNC(=O)COc1ccc(Nc2nnc(-c3ccc(C)c(S(=O)(=O)NC(C)(C)C)c3)c3ccccc23)cc1`, under setting [1], the AC50 is 20 µM [falling, single point].

Consider `COc1ccc(-c2onc(C)c2C)cc1S(=O)(=O)NC1CCC(C)CC1` (stereo not drawn), for which the AC50 under setting [1] is 39.8 µM [falling, single point].

For `Cc1ccc(OCC(=O)Nc2ccc(C(=O)OCc3cc(=O)n4c(C)csc4n3)cc2)cc1`, under setting [1], the AC50 was 3.16 µM [falling, full curve].

With `O=C(Nc1ccc(F)cc1F)c1ccc(-n2cnnc2)cc1`, under setting [1], the AC50 is 15.8 µM [falling, partial curve].

For `O=C(NCC12CC3CC(CC(C3)C1)C2)c1cc2nc(-c3ccc(F)cc3)cc(C(F)(F)F)n2n1`, the AC50 under setting [1] was 31.6 µM [falling, partial curve, poor fit].

Turning to `Cc1cc(-n2c(C)nc3ccccc3c2=O)ccc1NC(=O)c1cccc([N+](=O)[O-])c1`, the AC50 under setting [1] was 25.1 µM [falling, single point].

Take `Cc1cccc(NC(=O)CSc2cc(C)c3ccccc3n2)c1`: the AC50 under setting [1] was 39.8 µM [falling, single point].

Consider `COc1ccc(N2CCN(C(=O)Nc3cccc(C(F)(F)F)c3)CC2)cc1`, for which the AC50 under setting [1] is 25.1 µM [falling, single point].

Turning to `Cc1ccc(-n2c(=O)c3oc4ccccc4c3n(CC(=O)Nc3ccccc3)c2=O)cc1C`, under setting [1], the AC50 was 31.6 µM [falling, single point].

As for `COc1cccc(Nc2nc(-c3ccccc3)c3cc(C)ccc3n2)c1`, the AC50 under setting [1] was 20 µM [falling, single point].

Consider `Cc1ccc(NC(=O)C(Cc2ccccc2)NS(=O)(=O)c2cccc3nsnc23)c(C)c1` (stereo not drawn), for which, under setting [1], the AC50 is 12.6 µM [falling, partial curve].

With `COc1ccc(NC(=O)CSC2=Nc3ccccc3C3=NC(CC(=O)NCc4ccc(F)cc4)C(=O)N23)cc1` (stereo not drawn), the AC50 under setting [1] is 20 µM [falling, partial curve, poor fit].

On to `COc1cccc(NC(=O)/C(C#N)=C\c2cn(Cc3ccc(Cl)cc3)c3ccccc23)c1`, for which the AC50 under setting [1] is 3.98 µM [falling, full curve].

As to `COc1ccc(CNC(=O)Cn2c(=O)oc3cc(S(=O)(=O)N4CCCC4)ccc32)cc1`, the AC50 under setting [1] was 10 µM [falling, partial curve].

On to `O=C(O)c1cc(Cl)c2ccccc2c1O`, for which the AC50 under setting [1] was 25.1 µM [falling, single point].

On to `CCCCc1ccc(C(=O)N/C(=C\c2ccc(C)cc2)C(=O)NC2CCCCC2)cc1`, for which, under setting [1], the AC50 is 3.16 µM [falling, full curve].

Consider `Cc1ccc(Cl)cc1N1CCN(C(=O)c2ccc(C)c(-n3c(C)nc4cccnc43)c2)CC1`, for which the AC50 under setting [1] is 25.1 µM [falling, partial curve].

Turning to `CCc1nc2ccc(C(=O)N3CCN(c4ccc(Cl)cc4)CC3)cc2nc1CC`, the AC50 under setting [1] was 20 µM [falling, partial curve].

Regarding `Cc1cc(C(F)F)n2nc(C(=O)Nc3ccc(F)c(Cl)c3)nc2n1`, the AC50 under setting [1] was 0.398 µM [rising, partial curve].

As for `COc1ccc2c(C)c(CCC(=O)NCCc3ccc(Cl)cc3)c(=O)oc2c1`, the AC50 under setting [1] was 25.1 µM [falling, partial curve].

As for `CC1(C(=O)Nc2nccs2)Cc2ccccc2C(=O)O1` (stereo not drawn), the AC50 under setting [1] was 10 µM [falling, partial curve].

As for `COCCCNC(=O)CCc1c(C)nc2cc(-c3ccc(Cl)cc3)nn2c1C`, the AC50 under setting [1] is 0.2 µM [falling, full curve].

On to `O=C(c1cccs1)N1CCCc2cc(NS(=O)(=O)c3ccc(F)cc3)ccc21`, for which the AC50 under setting [1] was 39.8 µM [falling, single point].

For the compound `CC(C)Cn1c(/C=C/c2ccc(F)cc2)nc2ccccc21`, the AC50 under setting [1] is 31.6 µM [falling, single point].

Consider `O=C(c1ccc2c(=O)n(CCc3ccccc3)c(=O)[nH]c2c1)N1CCN(c2ccc(Cl)cc2)CC1`, for which the AC50 under setting [1] is 5.01 µM [falling, full curve].

On to `CCn1c(C)c(C)c2cc(C(=O)NCCc3ccc(C)cc3)ccc21`, for which the AC50 under setting [1] was 25.1 µM [falling, single point].

Consider `Cc1nn2c(-c3cccc(NC(=O)c4ccc(Cl)cc4)c3)nnc2c2ccccc12`, for which the AC50 under setting [2] was 39.8 µM [rising, single point] and the AC50 under setting [3] was 39.8 µM [rising, single point].

For the compound `O=C(NCCOc1ccc(Cl)cc1)C1CC(=O)N(c2ccc(F)cc2)C1` (stereo not drawn), under setting [1], the AC50 was 25.1 µM [falling, single point].

Regarding `Cc1cccc(N2CCN(C(=O)C3CCN(c4nnc(-n5cccc5)s4)CC3)CC2C)c1` (stereo not drawn), the AC50 under setting [2] was 20 µM [falling, partial curve] and the AC50 under setting [3] is 2.51 µM [falling, full curve].

Regarding `CCS(=O)(=O)N1CCc2cc(C(=O)Nc3cc(Cl)ccc3C)ccc21`, the AC50 under setting [1] is 20 µM [falling, partial curve].

Take `CCOC(=O)c1c(C)[nH]c(CCC(=O)Nc2ccccc2C(=O)OC)c1C`: the AC50 under setting [1] was 39.8 µM [falling, single point].

Turning to `COc1ccc(-n2c(-c3ccco3)nc3c(cnn3-c3ccc(C)cc3)c2=O)cc1`, the AC50 under setting [1] is 25.1 µM [falling, single point].

For the compound `Cc1ccc(-c2ccc(=O)n(CC(=O)NCc3ccc(F)cc3)n2)cc1`, the AC50 under setting [1] is 12.6 µM [falling, partial curve].

Turning to `COc1ccc(-c2nc3n(n2)C(=O)CC(c2ccc(Cl)cc2)S3)cc1` (stereo not drawn), the AC50 under setting [1] is 10 µM [falling, partial curve].

On to `COc1ccc2cc3cc(C(=O)NCCc4ccc(OC)c(OC)c4)oc3nc2c1`, for which the AC50 under setting [1] was 3.98 µM [falling, full curve, poor fit].

With `c1ccc2c(c1)nnn2-c1ncnc2sc3c(c12)CCCC3`, the AC50 under setting [1] was 39.8 µM [falling, single point].

With `Cc1cccc(NC(=O)CCn2nc(-c3ccccc3)c3ccccc3c2=O)c1`, the AC50 under setting [1] is 3.98 µM [rising, partial curve].

With `COc1ccc(NC(=O)C2CCCN2S(=O)(=O)c2ccc3nc(-c4ccccc4)[nH]c3c2)cc1` (stereo not drawn), the AC50 under setting [1] is 10 µM [falling, partial curve].

Consider `Fc1ccc(Cn2nnnc2C(c2cccs2)N2CCCCCC2)cc1` (stereo not drawn), for which the AC50 under setting [1] is 39.8 µM [falling, single point].

As for `CCOC(=O)c1cc(-c2ccc(C)cc2)n(CCC(=O)Nc2ccc(OC)c(OC)c2)c1C`, under setting [1], the AC50 was 39.8 µM [falling, partial curve, poor fit].

As to `CCCCCN1C(C(=O)c2ccccc2)=C(NC(=O)c2ccccc2Cl)c2ccccc2S1(=O)=O`, the AC50 under setting [1] was 5.01 µM [falling, partial curve].

As for `Nc1nc(Cl)nc2c1ncn2[C@@H]1O[C@@H](COP(=O)(O)OP(=O)(O)OP(=O)(O)O)[C@@H](O)[C@H]1O`, the AC50 under setting [1] was 1 µM [rising, full curve, poor fit] [measured here: IkB-luc green channel].

Regarding `O=C1C(C2=C(O)c3ccccc3C2=O)=Nc2ccccc21`, under setting [1], the AC50 was 0.02 µM [falling, full curve].

The AC50 is the midpoint of the concentration-response curve, whichever way the signal moves.
